Measured values as given in patent publication US4874526A, “Treatment of water” (Ciba-Geigy Corporation, priority 1981, dated 1989).

Experiment: Threshold test: effect on the activity of hydrolysed polymaleic anhydride (PMA) against calcium carbonate precipitation
Type: physicochemical
Settings: 24 hours at 25° C.

CCCCCCCCCCCCCC[P+](CCCC)(CCCC)CCCC.[Cl-] [tri-n-butyl tetradecyl phosphonium chloride]
effect on the activity of PMA (Threshold test) (compared with QA or QT, FIGS. 1-3): much less than the effect of QA or QT
effect of PMA in the Threshold test in presence of the compound (at some concentrations of PC): actually enhanced
